Results as given in the supplement of paper PMC4604168 (melanoma cell lines).
The list shows a part of the results. Many values rest on one well or one pass, so single values are uncertain.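 The apoptosis fraction was the count of cleaved-PARP antibody-stained nuclei relative to all DNA-stained nuclei, imaged in 1,536-well plates. Screening doses were set so most cells survived, and baseline and induced cleaved-PARP levels vary greatly across cell lines.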

These compounds were tested on MZ2-MEL (assay: cleaved PARP positive nuclei fraction relative to DMSO control; melanoma cells; higher = more apoptosis). Conditions: library dose: low library concentration; 72 h.

Compound	cleaved PARP positive nuclei fraction [%]
CN(c1ncccc1CNc1nc(Nc2ccc3c(c2)CC(=O)N3)ncc1C(F)(F)F)S(C)(=O)=O + Oc1cc(-c2nc(-c3ccccc3)[nH]c2-c2ccncc2)ccc1Cl [L779450] (first compound 0.08 µM, partner dose 0.2 µM)	103
NC(=O)c1ccc(N(C(N)=O)c2c(F)cccc2F)nc1-c1ccc(F)cc1F + COc1ccc(Cl)c(Nc2nc3ccccc3nc2NS(=O)(=O)c2cccc(NC(=O)C(C)(C)N)c2)c1 [XL147] (first compound 0.4 µM, partner dose 0.8 µM)	89
CN(c1ncccc1CNc1nc(Nc2ccc3c(c2)CC(=O)N3)ncc1C(F)(F)F)S(C)(=O)=O + Cc1cc(Nc2cc(N3CCN(C)CC3)nc(/C=C/c3ccccc3)n2)n[nH]1 [ENMD2076] (first compound 0.08 µM, partner dose 0.04 µM)	77.8
CCCCCCCCc1ccc(CCC(N)(CO)CO)cc1 [fingolimod] + c1cc(-c2cnn3cc(-c4ccc(OCCN5CCCCC5)cc4)cnc23)ccn1 [Dorsomorphin] (first compound 2 µM, partner dose 0.4 µM)	70
CS(=O)(=O)c1ccc(C(=O)Nc2ccc(Cl)c(-c3ccccn3)c2)c(Cl)c1 [vismodegib] + CC(=O)O[C@@]12CO[C@@H]1C[C@H](O)[C@@]1(C)C(=O)[C@H](O)C3=C(C)[C@@H](OC(=O)[C@H](O)[C@@H](NC(=O)OC(C)(C)C)c4ccccc4)C[C@@](O)([C@@H](OC(=O)c4ccccc4)[C@H]21)C3(C)C [Docetaxel] (first compound 1 µM, partner dose 0.0001 µM)	510
CC(=O)O[C@@]12CO[C@@H]1C[C@H](O)[C@@]1(C)C(=O)[C@H](O)C3=C(C)[C@@H](OC(=O)[C@H](O)[C@@H](NC(=O)OC(C)(C)C)c4ccccc4)C[C@@](O)([C@@H](OC(=O)c4ccccc4)[C@H]21)C3(C)C [Docetaxel] + COc1cc(Nc2ncc(F)c(Nc3ccc4c(n3)NC(=O)C(C)(C)O4)n2)cc(OC)c1OC [Tamatinib] (first compound 0.0001 µM, partner dose 0.4 µM)	526
CS(=O)(=O)c1ccc(C(=O)Nc2ccc(Cl)c(-c3ccccn3)c2)c(Cl)c1 [vismodegib] + CC1(C)NC(=O)N(c2ccc([N+](=O)[O-])c(C(F)(F)F)c2)C1=O [nilutamide] (first compound 1 µM, partner dose 1 µM)	72.7
CCN(CC)CCNC(=O)c1c(C)[nH]c(/C=C2\C(=O)Nc3ccc(F)cc32)c1C [sunitinib] + COCC[n+]1c2c(n(Cc3cnccn3)c1C)C(=O)c1ccccc1C2=O [YM155] (first compound 0.4 µM, partner dose 0.0004 µM)	33.7
NC1(c2ccc(-c3nc4ccn5c(=O)[nH]nc5c4cc3-c3ccccc3)cc2)CCC1 + Nc1ncn([C@H]2C[C@H](O)[C@@H](CO)O2)c(=O)n1 [decitabine] (first compound 0.4 µM, partner dose 0.1 µM)	160

These compounds were tested on MeWo in the same assay as above. Conditions: library dose: low library concentration; 72 h.

Compound	cleaved PARP positive nuclei fraction [%]
NC1(c2ccc(-c3nc4ccn5c(=O)[nH]nc5c4cc3-c3ccccc3)cc2)CCC1 + Cc1nc(Nc2ncc(C(=O)Nc3c(C)cccc3Cl)s2)cc(N2CCN(CCO)CC2)n1 [dasatanib] (first compound 0.4 µM, partner dose 0.004 µM)	50.9
C[C@@H](N)c1ccc(C(=O)Nc2ccnc3[nH]ccc23)cc1 + CC(C)(C)c1cnc(CSc2cnc(NC(=O)C3CCNCC3)s2)o1 [SNS-032] (first compound 0.4 µM, partner dose 0.01 µM)	164
NC(=O)c1ccc(N(C(N)=O)c2c(F)cccc2F)nc1-c1ccc(F)cc1F + CN1CCN(c2ccc3nc(-c4c(N)c5c(F)cccc5[nH]c4=O)[nH]c3c2)CC1 [Dovitinib] (first compound 0.4 µM, partner dose 0.1 µM)	1230
NC(=O)c1ccc(N(C(N)=O)c2c(F)cccc2F)nc1-c1ccc(F)cc1F + C[C@]1(O)C[C@@H](c2nc(-c3ccc4ccc(-c5ccccc5)nc4c3)c3c(N)nccn32)C1 [OSI906] (first compound 0.4 µM, partner dose 0.4 µM)	86.3
Cn1cnc2c(F)c(Nc3ccc(Br)cc3Cl)c(C(=O)NOCCO)cc21 [selumetinib] + Cn1nnc2c(C(N)=O)ncn2c1=O [temozolomide] (first compound 0.015 µM, partner dose 2 µM)	179
C[C@]1(O)C[C@@H](c2nc(-c3ccc4ccc(-c5ccccc5)nc4c3)c3c(N)nccn32)C1 + Clc1ccc(Nc2nnc(Cc3ccncc3)c3ccccc23)cc1 [vatalanib] (first compound 0.4 µM, partner dose 2 µM)	200
CC1(C)CCC(c2ccc(Cl)cc2)=C(CN2CCN(c3ccc(C(=O)NS(=O)(=O)c4ccc(N[C@H](CCN5CCOCC5)CSc5ccccc5)c(S(=O)(=O)C(F)(F)F)c4)cc3)CC2)C1 + Cc1cc(N2CCOCC2)cc2[nH]c(-c3c(NC[C@@H](O)c4cccc(Cl)c4)cc[nH]c3=O)nc12 [BMS536924] (first compound 0.4 µM, partner dose 0.2 µM)	360
CC(=O)O[C@@]12CO[C@@H]1C[C@H](O)[C@@]1(C)C(=O)[C@H](O)C3=C(C)[C@@H](OC(=O)[C@H](O)[C@@H](NC(=O)OC(C)(C)C)c4ccccc4)C[C@@](O)([C@@H](OC(=O)c4ccccc4)[C@H]21)C3(C)C [Docetaxel] + COCC[n+]1c2c(n(Cc3cnccn3)c1C)C(=O)c1ccccc1C2=O [YM155] (first compound 0.0001 µM, partner dose 0.0004 µM)	1160
NC1(c2ccc(-c3nc4ccn5c(=O)[nH]nc5c4cc3-c3ccccc3)cc2)CCC1 + CC(=O)c1c(C)c2cnc(Nc3ccc(N4CCNCC4)cn3)nc2n(C2CCCC2)c1=O [palbociclib] (first compound 0.4 µM, partner dose 0.04 µM)	88.5
Cn1sc(=O)n(Cc2ccccc2)c1=O + Cc1cc([N+](=O)[O-])ccc1NS(=O)(=O)c1cc(Cl)ccc1Cl [FH535] (first compound 0.4 µM, partner dose 1 µM)	114
CN(c1ncccc1CNc1nc(Nc2ccc3c(c2)CC(=O)N3)ncc1C(F)(F)F)S(C)(=O)=O + Nc1cccc2c1CN(C1CCC(=O)NC1=O)C2=O [lenalidomide] (first compound 0.08 µM, partner dose 1 µM)	99.8
NC(=O)c1ccc(N(C(N)=O)c2c(F)cccc2F)nc1-c1ccc(F)cc1F + C[C@]1(c2nc3c(C(N)=O)cccc3[nH]2)CCCN1 [Veliparib] (first compound 0.4 µM, partner dose 1.4 µM)	174
CCCCCCCCc1ccc(CCC(N)(CO)CO)cc1 [fingolimod] + O=C(O)c1ccc2c(c1)nc(Nc1cccc(Cl)c1)c1ccncc12 [CX4945] (first compound 2 µM, partner dose 0.4 µM)	49.6
C[C@@H](N)c1ccc(C(=O)Nc2ccnc3[nH]ccc23)cc1 + Cc1cc(N2CCOCC2)cc2[nH]c(-c3c(NC[C@@H](O)c4cccc(Cl)c4)cc[nH]c3=O)nc12 [BMS536924] (first compound 0.4 µM, partner dose 0.2 µM)	123
CCCCCCCCc1ccc(CCC(N)(CO)CO)cc1 [fingolimod] + C=CCn1c(=O)c2cnc(Nc3ccc(N4CCN(C)CC4)cc3)nc2n1-c1cccc(C(C)(C)O)n1 [MK1775] (first compound 2 µM, partner dose 0.02 µM)	15.9
CN(c1ncccc1CNc1nc(Nc2ccc3c(c2)CC(=O)N3)ncc1C(F)(F)F)S(C)(=O)=O + Nc1nc(F)nc2c1ncn2[C@@H]1O[C@H](CO)[C@@H](O)[C@@H]1O [fludarabine] (first compound 0.08 µM, partner dose 0.2 µM)	2020
C[C@@H](N)c1ccc(C(=O)Nc2ccnc3[nH]ccc23)cc1 + CS(=O)(=O)CCNCc1ccc(-c2ccc3ncnc(Nc4ccc(OCc5cccc(F)c5)c(Cl)c4)c3c2)o1 [lapatinib] (first compound 0.4 µM, partner dose 0.8 µM)	330
NC(=O)c1ccc(N(C(N)=O)c2c(F)cccc2F)nc1-c1ccc(F)cc1F + CS(=O)(=O)CCNCc1ccc(-c2ccc3ncnc(Nc4ccc(OCc5cccc(F)c5)c(Cl)c4)c3c2)o1 [lapatinib] (first compound 0.4 µM, partner dose 0.8 µM)	195
CS(=O)(=O)c1ccc(C(=O)Nc2ccc(Cl)c(-c3ccccn3)c2)c(Cl)c1 [vismodegib] + O=C(O)c1ccc2c(c1)nc(Nc1cccc(Cl)c1)c1ccncc12 [CX4945] (first compound 1 µM, partner dose 0.4 µM)	119
CC(=O)O[C@@]12CO[C@@H]1C[C@H](O)[C@@]1(C)C(=O)[C@H](O)C3=C(C)[C@@H](OC(=O)[C@H](O)[C@@H](NC(=O)OC(C)(C)C)c4ccccc4)C[C@@](O)([C@@H](OC(=O)c4ccccc4)[C@H]21)C3(C)C [Docetaxel] + CCc1ccc(CCOc2ccc(CC3SC(=O)NC3=O)cc2)nc1 [pioglitazone] (first compound 0.0001 µM, partner dose 2 µM)	734

An excerpt of these results, field by field:
CCCCCCCCc1ccc(CCC(N)(CO)CO)cc1 [fingolimod] + O=C(O)c1ccc2c(c1)nc(Nc1cccc(Cl)c1)c1ccncc12 [CX4945] (first compound 2 µM, partner dose 0.4 µM)
  cleaved PARP positive nuclei fraction [%]: 49.6
C[C@@H](N)c1ccc(C(=O)Nc2ccnc3[nH]ccc23)cc1 + CS(=O)(=O)CCNCc1ccc(-c2ccc3ncnc(Nc4ccc(OCc5cccc(F)c5)c(Cl)c4)c3c2)o1 [lapatinib] (first compound 0.4 µM, partner dose 0.8 µM)
  cleaved PARP positive nuclei fraction [%]: 330
